{"source": "PubChem BioAssay AID1347076", "about": "(National Center for Advancing Translational Sciences (NCATS), 2019)", "note": "Several values for one entry are separate records, joined by “and”; a condition that tells them apart may be missing. Equal entries are not always repeated. Hit rate of the full screen: of about 400,000 compounds, about 13,000 (3.2%) were called active. Inconclusive results, whose numbers are uncertain, are shown with a selection of clear calls. Calls follow the shape of the dose curve; as a rule, active = well fitted cell-killing curve with a large enough effect; inconclusive = small, poorly fitted or top-dose-only effect, or effect the other way; inactive = flat fitted curve, though single readings scatter. Where the call is inconclusive, the potency comes from a doubtful curve fit. % is scaled to controls: 0 for no effect and ±100 for the full control effect; potency is read from the fitted curve at half-maximal effect.", "data": [{"assay": "qHTS assay for MDR1-selective chemotherapeutics: Primary screen using the drug-selected MDR subline cells KB-V1; also: nearly all actives have a fitted effect of over 60% in size", "conditions": "KB-V1 MDR cells viability, CellTiter-Glo, 72 h; activity change, negative = cytotoxicity: at 46.1 µM (top of the series)", "summary_of_the_method": "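Cytotoxicity toward P-gp-expressing KB-V1 cells was determined as loss of CellTiter-Glo luminescence after 72 h at 37 degrees C. Compounds were tested in quantitative HTS format across a concentration range, with curves fitted to normalized data.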", "values": [{"compound": "CCCn1[nH]cc(SC)c(=O)c1=O", "Potency": "inconclusive: 35.5 µM [cytotoxic, single point]"}, {"compound": "CC(C)CNc1ncnc2c1cnn2Cc1ccc(Cl)cc1", "activity change, negative = cytotoxicity": "inconclusive: -25.8%"}, {"compound": "CCOc1ccc(CN(CC)C(=O)Cc2c[nH]c3ccccc23)cc1OC", "activity change, negative = cytotoxicity": "inactive: -19.1%"}, {"compound": "CN(C)C(/C=C/Nc1cccc([N+](=O)[O-])c1)=C(C#N)C#N", "Potency": "inconclusive: 20.6 µM [rising, single point]"}, {"compound": "CCCOc1ccc(C(=O)Nc2sc3c(c2C(=O)OCC)CCCCC3)cc1", "Potency": "inconclusive: 29.1 µM [rising, single point]"}, {"compound": "O=C(Nc1nnc(C2=COCCO2)o1)c1ccc(S(=O)(=O)N2CCCCC2)cc1", "Potency": "inconclusive: 16.4 µM [cytotoxic, single point]"}, {"compound": "COCC(=O)O[C@]1(CCN(C)CCCc2nc3ccccc3[nH]2)CCc2cc(F)ccc2[C@@H]1C(C)C", "Potency": "active: 14.6 µM"}, {"compound": "O=C(Nc1ccc(C(O)c2ccccc2)cc1)[C@H]1C[C@H](O)[C@@H](CO)O1", "note": "(some centres not stated)", "activity change, negative = cytotoxicity": "inactive: 6.05%"}, {"compound": "COc1ccc(CN2C(=O)c3cccnc3C2=O)cc1S(=O)(=O)N1CC(C)CC(C)C1", "note": "(configuration not stated)", "activity change, negative = cytotoxicity": "inactive: 0%"}, {"compound": "CCOc1cccc(C2/C(=C(\\O)c3ccc4c(c3)OCCO4)C(=O)C(=O)N2Cc2ccncc2)c1", "note": "(configuration not stated)", "Potency": "inconclusive: 6.51 µM [rising, partial curve]"}, {"compound": "Fc1cccc(Cc2c(-c3ccco3)nc3ccc(Br)cn23)c1", "activity change, negative = cytotoxicity": "inactive: 14.2%"}, {"compound": "O=S(=O)(NC1CCCCC1)c1ccc(Cl)s1", "Potency": "inconclusive: 29.1 µM [cytotoxic, single point]"}, {"compound": "COc1nccnc1NS(=O)(=O)c1ccc(N=Cc2c(C)[nH]n(-c3ccc(C)c(C)c3)c2=O)cc1", "Potency": "inconclusive: 29.1 µM [cytotoxic, single point]"}, {"compound": "COc1cc(/C=N/NC(=O)c2ccc(N(C)S(=O)(=O)c3ccccc3)cc2)cc(OC)c1OC", "Potency": "inconclusive: 11.6 µM [cytotoxic, partial curve]"}, {"compound": "Cc1ccccc1-c1noc(-c2ccc(N3CCCC3)c([N+](=O)[O-])c2)n1", "activity change, negative = cytotoxicity": "inactive: 22%"}, {"compound": "COc1ccccc1OCCCn1c(C)c(C#N)c2ccccc21", "Potency": "inconclusive: 18.4 µM [cytotoxic, single point]"}, {"compound": "COc1cccc(C(=O)N2CCC[C@@H]2C(=O)N2CCC[C@H]2C(=O)NCc2ccncc2)c1", "Potency": "inconclusive: 10.3 µM [rising, partial curve, poor fit]"}, {"compound": "CCOc1cc(C(=O)OCC(=O)Nc2ncc(Cl)c(C)c2Cl)ccc1OCC(=O)N1CCOCC1", "activity change, negative = cytotoxicity": "inactive: -15.9%"}, {"compound": "Clc1ccc(-c2nn3cnnc3s2)c(Cl)c1", "Potency": "inconclusive: 1.64 µM [cytotoxic, full curve]"}, {"compound": "Cc1ccc(C)c(N2CCN(C(=O)CNS(=O)(=O)c3cccs3)CC2)c1", "activity change, negative = cytotoxicity": "inactive: 0%"}, {"compound": "CCCC1=[N+](CC)CCn2c(C)ccc21", "activity change, negative = cytotoxicity": "inactive: 0.116%"}, {"compound": "O=C(NNC1=Nc2ccccc2SC1)c1ccccc1F", "Potency": "inconclusive: 16.4 µM [cytotoxic, single point]"}, {"compound": "CCN(CC)Cc1cc(Nc2ccnc3cc(Cl)ccc23)ccc1O", "Potency": "inconclusive: 13 µM [cytotoxic, partial curve] and inconclusive: 11.6 µM [cytotoxic, partial curve]"}, {"compound": "Cc1nn(CCCC(=O)NCc2ccc(Cl)cc2)c(C)c1[N+](=O)[O-]", "Potency": "active: 23.1 µM"}, {"compound": "CCOC(=O)C(C)Oc1cccc2c(=O)n(CC(=O)Nc3ccc(OC)cc3)ccc12", "note": "(configuration not stated)", "Potency": "inconclusive: 14.6 µM [cytotoxic, partial curve, poor fit]"}, {"compound": "O=C(c1ccc(S(=O)(=O)N2CCCC2)cc1)N1CCN(Cc2ccc3c(c2)OCO3)CC1", "Potency": "inconclusive: 18.4 µM [cytotoxic, partial curve]"}, {"compound": "Nc1[nH]n(-c2ccccc2)c(=O)c1N=Nc1ccccc1[N+](=O)[O-]", "Potency": "inconclusive: 25.9 µM [cytotoxic, single point]"}, {"compound": "CC(=O)N(c1ccc2oc(=O)sc2c1)S(=O)(=O)c1ccc(C)cc1", "Potency": "inconclusive: 20.6 µM [cytotoxic, partial curve, poor fit]"}, {"compound": "COc1cccc(C2C(C(=O)Nc3ccccc3)=C(C)N=c3s/c(=C/c4ccc(OCC(=O)O)cc4)c(=O)n32)c1", "note": "(configuration not stated)", "activity change, negative = cytotoxicity": "inactive: 14.9%"}, {"compound": "COc1cccc(-n2c(SCC(=O)NCCC3=CCCCC3)nc3n[nH]c(C)c3c2=N)c1", "Potency": "active: 13 µM"}, {"compound": "O=C(c1ccc(Cn2c(=S)[nH]c3ccc(N4CCOCC4)cc3c2=O)cc1)N1CCN(c2ccc(F)cc2)CC1", "Potency": "inconclusive: 3.66 µM [cytotoxic, full curve]"}, {"compound": "COc1ccc(OC(=O)CCc2c[nH]c3ccccc23)cc1", "activity change, negative = cytotoxicity": "inactive: 2.34%"}, {"compound": "Cc1ccc2nc(-c3ccc(NC(=O)C4CCCO4)cc3)[nH]c2c1", "note": "(configuration not stated)", "Potency": "active: 9.2 µM"}, {"compound": "Cc1cc(C(F)F)n2nc(C(=O)Nc3sc4c(c3C(N)=O)CCC4)nc2n1", "activity change, negative = cytotoxicity": "inactive: 0.632%"}, {"compound": "COc1cccc2cc(/C(C)=N/Nc3nc(-c4cc(C)ccc4C)cs3)c(=O)oc12", "activity change, negative = cytotoxicity": "inactive: -16.8%"}, {"compound": "COc1ccc(OC)c(C(=O)C2COC(=O)C2)c1", "note": "(configuration not stated)", "Potency": "inconclusive: 14.6 µM [rising, partial curve, poor fit]"}, {"compound": "COc1ccc(C2Nc3ccccc3C(=O)N2Cc2ccccc2)cc1COc1ccc([N+](=O)[O-])cc1", "note": "(configuration not stated)", "activity change, negative = cytotoxicity": "inactive: 12.6%"}, {"compound": "Cc1ccc(N2C(N)=NC(N)=NC23CCCC3)c(C)c1", "Potency": "inconclusive: 32.6 µM [rising, partial curve, poor fit]"}, {"compound": "O=C1CC(c2ccc(F)cc2)Cc2nc(N3CCOCC3)ncc21", "note": "(configuration not stated)", "Potency": "inconclusive: 23.1 µM [cytotoxic, partial curve]"}, {"compound": "O=C(NCc1cccnc1)c1ccc(Br)o1", "activity change, negative = cytotoxicity": "inactive: 12%"}, {"compound": "CN(C(=O)CN1CCN(c2cc(-c3ccc(OCc4ccccc4)cc3)ncn2)CC1)c1ccccc1", "Potency": "inconclusive: 2.31 µM [cytotoxic, full curve]"}, {"compound": "COc1cccc(-c2nc(N3CCN(C)CC3)c3ccccc3n2)c1O", "Potency": "inconclusive: 14.6 µM [cytotoxic, partial curve]"}, {"compound": "N#C/C(=C/c1ccc(N2CCCCCC2)o1)c1ccc(F)cc1", "Potency": "inconclusive: 18.4 µM [cytotoxic, single point]"}, {"compound": "Cc1ccc2nc(SCC(=O)NC3CCCc4ccccc43)[nH]c2c1", "note": "(configuration not stated)", "Potency": "active: 14.6 µM"}, {"compound": "COc1ccc([C@H]2CC(=O)C=C(c3ccc(OC(F)(F)F)cc3)C2)cc1", "Potency": "inconclusive: 14.6 µM [rising, single point]"}, {"compound": "S=c1[nH]nc(C(c2ccccc2)C2CCCCC2)o1", "note": "(configuration not stated)", "activity change, negative = cytotoxicity": "inactive: 16.5%"}, {"compound": "COc1ccc(S(=O)(=O)NC(=O)C2(C)CCN2C(=O)CC2CC2)cc1", "note": "(configuration not stated)", "activity change, negative = cytotoxicity": "inactive: -1.96%"}, {"compound": "CCN(CC)S(=O)(=O)c1ccc2c(c1)N(CC(=O)Nc1c(C)cc(C)cc1C)C(=O)CS2", "activity change, negative = cytotoxicity": "inactive: -6.5%"}, {"compound": "CC(=O)C1=C(O)C(=O)N(c2ccc(Br)cn2)C1c1ccc(Br)cc1", "note": "(configuration not stated)", "Potency": "inconclusive: 14.6 µM [cytotoxic, partial curve]"}, {"compound": "COc1ccc(C(Nc2ccccn2)c2c(NC(=O)c3ccco3)sc(C)c2C)cc1", "note": "(configuration not stated)", "activity change, negative = cytotoxicity": "inactive: -1.39%"}, {"compound": "Cc1cc(C)cc(NC(=O)CSc2nnc(CNC(=O)c3c(F)cccc3Cl)o2)c1", "activity change, negative = cytotoxicity": "inactive: 23%"}, {"compound": "COc1cccc(CNn2cnnc2)c1OCc1ccc(F)cc1", "activity change, negative = cytotoxicity": "inactive: 1.28%"}, {"compound": "O=C1S/C(=C\\c2ccc(N3CCOCC3)o2)C(=O)N1Cc1c(F)cccc1Cl", "activity change, negative = cytotoxicity": "inactive: -0.148%"}, {"compound": "Cc1cc(C)c2nc(NNC(=O)c3ccc(S(=O)(=O)N4CCc5ccccc5C4)cc3)sc2c1", "activity change, negative = cytotoxicity": "inactive: -0.176%"}, {"compound": "O=S(=O)(c1cccc(-c2nc3ccccc3s2)c1)N1CCCC1", "Potency": "active: 14.6 µM"}, {"compound": "CC1(c2nnc(Cc3ccccc3)o2)CC(c2ccccc2Br)=NO1", "note": "(configuration not stated)", "Potency": "inconclusive: 0.92 µM [rising, full curve]"}, {"compound": "COc1ccccc1NC(=O)c1ccc(NC(=O)c2cc3c(s2)CCC3)cc1", "Potency": "inconclusive: 7.31 µM [cytotoxic, partial curve]"}, {"compound": "CCOc1ccccc1N1CC(c2nc3ccccc3n2CCOc2ccccc2OC)CC1=O", "note": "(configuration not stated)", "Potency": "inconclusive: 8.2 µM [cytotoxic, single point]"}, {"compound": "CCN(CC)S(=O)(=O)c1ccc(C(=O)O)cc1", "activity change, negative = cytotoxicity": "inactive: -16.5%"}, {"compound": "CCOc1ccc(-c2c(C(=O)N/N=C/C3CC=CCC3)nnn2-c2nonc2N)cc1", "note": "(configuration not stated)", "Potency": "inconclusive: 7.31 µM [rising, partial curve]"}, {"compound": "OC(CNc1ccccc1)COc1ccc(OCC(O)CNc2ccccc2)cc1", "note": "(configuration not stated)", "Potency": "inconclusive: 18.4 µM [cytotoxic, single point]"}, {"compound": "Nc1nc(N)c2cc(CNc3ccc(Cl)c(Cl)c3)ccc2n1", "Potency": "active: 16.4 µM"}, {"compound": "CCC(C)(C)NC(=S)Nc1ccc(-c2nc3ccc(C)cc3s2)cc1", "activity change, negative = cytotoxicity": "inactive: -38.1%"}, {"compound": "Cc1ccccc1NC(=O)CN1CCc2ccccc2C1", "Potency": "inconclusive: 18.4 µM [rising, single point]"}, {"compound": "CC(C)n1c(N2CCN(C(=O)N3CCCCC3)CC2)nc2ccccc21", "Potency": "inconclusive: 5.17 µM [cytotoxic, partial curve]"}, {"compound": "COCCNC(=O)c1ccccc1-c1nc(-c2ccccc2Cl)no1", "Potency": "inconclusive: 18.4 µM [cytotoxic, partial curve, poor fit]"}, {"compound": "CCOC(=O)C1(CC2CC2)CCN(Cc2ccc(OC)cc2F)CC1", "Potency": "inconclusive: 14.6 µM [cytotoxic, partial curve, poor fit]"}, {"compound": "COc1cccc2cc(-c3n[nH]c(=S)n3C)oc12", "Potency": "inconclusive: 20.6 µM [cytotoxic, single point]"}, {"compound": "O=c1cc(CN2CCN(C/C=C/c3ccccc3)CC2)c2cc(O)ccc2o1", "Potency": "inconclusive: 18.4 µM [cytotoxic, single point]"}, {"compound": "Cc1[nH]n(-c2ccccc2)c(=O)c1/C=N/N(C)c1ccccc1", "Potency": "active: 14.6 µM"}, {"compound": "C[C@@H]1CN([C@@H](C)CO)C(=O)CCCn2nncc2CO[C@H]1CN(C)C(=O)Nc1ccccc1F", "activity change, negative = cytotoxicity": "inactive: -0.575%"}, {"compound": "Cc1cc(C(=O)COc2ccc(F)cc2Br)c(C)n1C1CC1", "Potency": "inconclusive: 18.4 µM [cytotoxic, single point]"}]}]}
